Data reported in paper PMC7915940 (Molecules, 2021).

assay: general procedure: Fmoc solid-phase peptide synthesis; Rink-amide MBHA resin; HBTU/HOBt/DIEA or DIC/DMAP; conditions: whole synthesis, Shimadzu LC MS/MS 8045

Q: Which “purity (crude or final not stated)” value does the source give for Caf-KnLAKnLAK-NH2 here?
A: Its value is 100.00%.

Q: With (KLAKLAK)2-NH2 as the substance, how does the “purity (crude or final not stated)” value read?
A: The value was 100.00%.

Q: Which “purity (crude or final not stated)” value does the source give for Caf-KLβAKLβAK-NH2 here?
A: Its value is 82.17%.

Q: For Caf-KLAKLAK-NH2, which “purity (crude or final not stated)” value is on record?
A: Its value is 82.37%.

Q: With 1,8-naphthalimideG-KLAKLAK-NH2 as the substance, how does the “purity (crude or final not stated)” value read?
A: Its value is 98.07%.

Q: With KLAKLAK-NH2 as the substance, how does the “purity (crude or final not stated)” value read?
A: The value was 100.00%.
